In PMC3319607:
No constants are given. Whether binding was seen depends on the method and setting. Binding seen in cells or lysates may run through a third protein. Some binding calls cover weakened binding; strength is not graded here.

Amino acid sequences for entries named in this document (tags omitted).
UniProt P70315: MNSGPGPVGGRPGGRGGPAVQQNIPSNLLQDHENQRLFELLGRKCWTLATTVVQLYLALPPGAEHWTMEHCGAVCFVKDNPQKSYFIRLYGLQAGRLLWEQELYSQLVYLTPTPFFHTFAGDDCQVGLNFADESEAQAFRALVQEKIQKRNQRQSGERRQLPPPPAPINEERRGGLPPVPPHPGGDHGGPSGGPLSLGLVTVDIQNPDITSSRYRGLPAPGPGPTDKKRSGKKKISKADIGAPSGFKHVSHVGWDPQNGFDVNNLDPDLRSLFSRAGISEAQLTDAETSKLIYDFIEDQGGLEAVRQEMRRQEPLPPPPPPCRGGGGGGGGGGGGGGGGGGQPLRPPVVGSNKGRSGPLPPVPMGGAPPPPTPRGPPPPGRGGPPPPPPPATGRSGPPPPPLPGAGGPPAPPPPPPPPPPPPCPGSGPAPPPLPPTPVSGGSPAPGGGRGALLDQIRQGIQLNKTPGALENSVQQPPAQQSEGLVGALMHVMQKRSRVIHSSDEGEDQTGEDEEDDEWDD
UniProt Q8K1I7: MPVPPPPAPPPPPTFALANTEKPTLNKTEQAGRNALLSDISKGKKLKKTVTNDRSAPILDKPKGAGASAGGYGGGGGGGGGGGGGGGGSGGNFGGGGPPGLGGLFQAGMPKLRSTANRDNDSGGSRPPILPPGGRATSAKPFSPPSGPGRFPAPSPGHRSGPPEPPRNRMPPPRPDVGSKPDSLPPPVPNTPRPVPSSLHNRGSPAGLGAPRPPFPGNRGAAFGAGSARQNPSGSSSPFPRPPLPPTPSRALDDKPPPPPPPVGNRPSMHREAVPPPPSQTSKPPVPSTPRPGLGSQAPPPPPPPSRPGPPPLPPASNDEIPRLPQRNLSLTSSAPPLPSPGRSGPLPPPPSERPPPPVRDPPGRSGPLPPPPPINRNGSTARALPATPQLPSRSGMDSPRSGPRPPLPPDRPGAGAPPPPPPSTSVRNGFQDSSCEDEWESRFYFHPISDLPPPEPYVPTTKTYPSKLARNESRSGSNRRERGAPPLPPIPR

Molecular target: Wiskott-Aldrich syndrome protein (WASP), native, in RAW 264.7 cell lysate (mouse (endogenous in RAW 264.7)) (UniProt P70315)
Test: co-IP; RAW264.7 lysate (RIPA buffer) incubated with S01 anti-WASP-scFv silk powder (RT, 60 min, five TBST washes) or with anti-WASP mAb on protein G-sepharose; blot with anti-WASP pAb and anti-WIP pAb

- binding: binds
Substance: WASP-interacting protein (WIP), native, in RAW 264.7 cell lysate (from UniProt Q8K1I7 1-493)
